PubChem BioAssay AID504793 – Drosophila RNAi Screening Center – 2011

- Purpose: 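Genes required for cells to halt at G2/M after double-strand DNA breaks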 (primary screen)
- Cells: Drosophila S2R+ cells
- Reagent: long dsRNA against Drosophila genes, about 0.25 µg dsRNA per well
- Duration: 4 days of dsRNA, then 4 hours of drug before read-out
- Challenge: doxorubicin 0.5 µM for 4 hours to cause double-strand breaks, in cells also given a low, harmless dose of dsRNA against nbs to sensitise the assay
- Measured: 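Mitotic index as the number of phospho-histone H3-positive cells in each well following doxorubicin, given as raw counts without normalisation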
- Direction: mitotic cells: higher = more cells in mitosis, weaker G2 arrest
- Active means: 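a call needs confirmation in secondary tests, with other dsRNAs and a check of mitotic timing without damage, not just a high primary count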
- Calls: active = confirmed in follow-up tests; inactive = not confirmed
The screen tested about 23,000 reagents; shown is an unselected part of those that have a named target and a result. In the full data, 62 (0.27%) got an active call. 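Calls come from follow-up tests whose scores are not deposited, so confirmed genes may have low counts here; counts are not normalised per plate.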 The raw values are shown without normalisation. The numbers tell different reagents against one gene apart. A plus sign joins genes that one reagent is predicted to hit.

| target gene | reagent no. | mitotic cells, replicate 1 | mitotic cells, replicate 2 | Call |
| --- | --- | --- | --- | --- |
| Nep5 | 1 | 4 | – | inactive |
| eEF2 | 1 | 10 | – | inactive |
| CG12998 | 1 | 8 | – | inactive |
| Delta | 1 | 8 | – | inactive |
| Delta | 2 | 4 | – | inactive |
| CG4363 | 1 | 7 | – | inactive |
| Psi | 1 | 6 | – | inactive |
| Psi | 2 | 4 | – | inactive |
| CG4238 | 1 | 3 | – | inactive |
| CG8026 | 1 | 13 | – | inactive |
| CG8026 | 2 | 5 | – | inactive |
| CG17724 | 1 | 9 | – | inactive |
| CG17724 | 2 | 10 | – | inactive |
| Ir76a | 1 | 3 | – | inactive |
| dar1 | 1 | 3 | – | inactive |
| sca | 1 | 7 | – | inactive |
| sca | 2 | 1 | – | inactive |
| Mst87F | 1 | 1 | – | inactive |
| Mst87F | 2 | 5 | – | inactive |
| lncRNA:CR30055 | 1 | 13 | – | inactive |
| lncRNA:CR30055 | 2 | 13 | – | inactive |
| CG17732 | 1 | 6 | – | inactive |
| RpL14 | 1 | 8 | – | inactive |
| CG14050 | 1 | 5 | – | inactive |
| CG40191 | 1 | 8 | – | inactive |
| Diap1 | 1 | 7 | – | inactive |
| CG10467 + CG10469 | 1 | 4 | – | inactive |
| Sxl + CG14425 (retired record) | 1 | 5 | – | inactive |
| Sxl + CG14425 (retired record) | 2 | 17 | – | inactive |
| Sxl + CG14425 (retired record) | 3 | 12 | – | inactive |
| Sxl + CG14425 (retired record) | 4 | 4 | – | inactive |
| Vps53 | 1 | 4 | – | inactive |
| CG12299 | 1 | 6 | – | inactive |
| CG12299 | 2 | 8 | – | inactive |
| CG6294 + CG6299 + CG15642 | 1 | 14 | – | inactive |
| TwdlY | 1 | 4 | 13 | inactive |
| CG5644 | 1 | 6 | – | inactive |
| Rme-8 | 1 | 4 | – | inactive |
| CG34431 | 1 | 6 | – | inactive |
| Obp56b | 1 | 3 | – | inactive |
| CG3793 | 1 | 10 | – | inactive |
| CG33299 | 1 | 3 | – | inactive |
| CG1275 | 1 | 10 | – | inactive |
| CG18132 | 1 | 4 | – | inactive |
| lncRNA:CR32657 | 1 | 15 | – | inactive |
| lncRNA:CR32657 | 2 | 10 | – | inactive |
| Saf6 | 1 | 2 | – | inactive |
| Oxp | 1 | 6 | – | inactive |
| CG14589 | 1 | – | – | inactive |
| CG33235 | 1 | 11 | – | inactive |
| Tim17b1 | 1 | 10 | – | inactive |
| twy | 1 | 2 | – | inactive |
| Tmem18 | 1 | 4 | – | inactive |
| Rpp30 | 1 | 7 | – | inactive |
| CG18731 | 1 | 10 | – | inactive |
| CG18278 + CG30059 | 1 | 3 | – | inactive |
| TfIIA-S | 1 | 16 | – | inactive |
| apn | 1 | 4 | – | inactive |
| Fbxl4 | 1 | 9 | – | inactive |
| CG14085 | 1 | 5 | – | inactive |
| CG31735 | 1 | 8 | – | inactive |
| CG31735 | 2 | 2 | – | inactive |
| UGP + PGRP-LF | 1 | 4 | – | inactive |
| beat-IIb | 1 | 7 | – | inactive |
| beat-IIb | 2 | 10 | – | inactive |
| beat-IIb | 3 | 5 | – | inactive |
| CG6067 | 1 | 10 | – | inactive |
| TwdlW | 1 | – | – | inactive |
| TwdlW | 2 | 10 | – | inactive |
| Fum4 | 1 | 13 | – | inactive |
| Fum4 | 2 | 4 | – | inactive |
| CG13887 | 1 | 6 | – | inactive |
| CG32590 | 1 | 9 | – | inactive |
| Obp59a | 1 | – | – | inactive |
| VAChT | 1 | 12 | – | inactive |
| VAChT | 2 | 5 | – | inactive |
| VAChT | 3 | 7 | – | inactive |
| SF1 | 1 | 15 | – | inactive |
| CG11110 | 1 | 8 | – | inactive |
| CG11110 | 2 | 8 | – | inactive |
| Or83a | 1 | 7 | – | inactive |
| Scsalpha2 | 1 | 3 | – | inactive |
| MFS10 | 1 | 6 | – | inactive |
| MFS10 | 2 | 9 | – | inactive |
| CG17030 | 1 | 7 | – | inactive |
| Hap40 | 1 | 5 | – | inactive |
| Hap40 | 2 | 4 | – | inactive |
| Rab3-GAP | 1 | 4 | – | inactive |
| Rab3-GAP | 2 | 4 | – | inactive |
| Sema2a | 1 | 3 | – | inactive |
| MstProx | 1 | 14 | – | inactive |
| MstProx | 2 | 7 | – | inactive |
| hpRNA:CR32205 + CG33255 (retired record) | 1 | 11 | – | inactive |
| Ppa | 1 | 5 | – | inactive |
| Ppa | 2 | 6 | – | inactive |
| atl | 1 | 8 | – | inactive |
| atl | 2 | 6 | – | inactive |
| Rcd6 | 1 | 7 | – | inactive |
| Rcd6 | 2 | 9 | – | inactive |
| CG15564 | 1 | 9 | – | inactive |
| Cad88C | 1 | 6 | – | inactive |
| Cad88C | 2 | 8 | – | inactive |
| CG13390 | 1 | 8 | – | inactive |
| CG13390 | 2 | 4 | – | inactive |
| ND-75 | 1 | 9 | – | inactive |
| Cpr76Bb | 1 | 4 | – | inactive |
| Cpr76Bb | 2 | 9 | – | inactive |
| Cpr76Bb | 3 | 4 | – | inactive |
| CG14857 | 1 | 7 | – | inactive |
| CG5968 | 1 | 7 | – | inactive |
| Iris | 1 | 7 | – | inactive |
| daed + CG34174 | 1 | 7 | – | inactive |
| CG4259 | 1 | 9 | – | inactive |
| CG4259 | 2 | 3 | – | inactive |
| CG17560 | 1 | 4 | – | inactive |
| CG5079 | 1 | 8 | – | inactive |
| CG42490 (retired record) | 1 | 6 | – | inactive |
| CG42490 (retired record) | 2 | 8 | – | inactive |
| CG13877 + pyx | 1 | 4 | – | inactive |
| 2mit | 1 | 5 | – | inactive |
| 2mit | 2 | 1 | – | inactive |
| CG12637 | 1 | 10 | – | inactive |
| CG12637 | 2 | 5 | – | inactive |
| Mst98Ca | 1 | 8 | – | inactive |
| lt | 1 | 3 | – | inactive |
| CG7857 | 1 | 3 | – | inactive |
| CG7857 | 2 | 8 | – | inactive |
| Atg13 | 1 | 8 | – | inactive |
| CG10280 | 1 | 7 | – | inactive |
| CG10280 | 2 | 6 | – | inactive |
| CTCF | 1 | 10 | – | inactive |
| CTCF | 2 | 7 | – | inactive |
| CG34427 | 1 | 3 | – | inactive |
| Ir51a | 1 | 8 | – | inactive |
| 5-HT1B | 1 | 4 | – | inactive |
| 5-HT1B | 2 | 1 | – | inactive |
| 5-HT1B | 3 | 2 | – | inactive |
| CG13681 (retired record) | 1 | 9 | – | inactive |
| CG13681 (retired record) | 2 | 8 | – | inactive |
| CG13681 (retired record) | 3 | 6 | – | inactive |
| CG13681 (retired record) | 4 | 6 | – | inactive |
| CG13681 (retired record) | 5 | 3 | – | inactive |
| CG13681 (retired record) | 6 | 7 | – | inactive |
| CG13681 (retired record) | 7 | 9 | – | inactive |

Part of the list above, set out differently.
Ir51a — mitotic cells, replicate 1: 8; Call: inactive
5-HT1B #1 — mitotic cells, replicate 1: 4; Call: inactive
5-HT1B #2 — mitotic cells, replicate 1: 1; Call: inactive
5-HT1B #3 — mitotic cells, replicate 1: 2; Call: inactive
CG13681 (retired record) #1 — mitotic cells, replicate 1: 9; Call: inactive
CG13681 (retired record) #2 — mitotic cells, replicate 1: 8; Call: inactive
CG13681 (retired record) #3 — mitotic cells, replicate 1: 6; Call: inactive
CG13681 (retired record) #4 — mitotic cells, replicate 1: 6; Call: inactive
CG13681 (retired record) #5 — mitotic cells, replicate 1: 3; Call: inactive
CG13681 (retired record) #6 — mitotic cells, replicate 1: 7; Call: inactive
